Measured values: the supplement of paper PMC12578635
This is one part of the list. Rule as the data show it: active = 150% or more and inactive = the rest. Single values are uncertain, as repeats are few or missing.

Tested on: Staphylococcus aureus JE2-lux inside RAW 264.7 macrophages
Assay: intracellular bacterial bioluminescence relative to DMSO vehicle; higher = higher intracellular bacterial metabolic activity
Conditions: 10 µM; treatment time 4 h; gentamicin 50 µg/ml

Intracellular bacterial bioluminescence, inactive:
Cc1ccc(C)c(CSc2nc(=O)n3cc(Cl)ccc3n2)c1 67.6%
CCC(=O)Nc1ccc2nc(SCc3cc(=O)n4nc(-c5ccccc5)[nH]c4n3)sc2c1 122%
NC(=O)CC1Nc2cccc3cccc(c23)NC1=O (stereo not drawn) 16.3%
CCc1cc2c(N(CC)c3ccccc3)ncnc2s1 69.9%
O=C(CCCS(=O)(=O)c1ccccc1)Nc1nc2c(cc3c4c(cccc42)CC3)s1 75.5%
O=C(Nn1cnc2c(cnn2-c2ccccc2)c1=O)c1ccc(F)c(F)c1 149%
Cc1ccc(NS(=O)(=O)c2cc(-c3cc(C(F)(F)F)on3)cs2)c(Br)c1 64.8%
Cc1ccc(CNC(=O)c2cc(-c3ccccn3)[nH]n2)cc1 2.07%
CCOc1ccc(NC=C(S(=O)(=O)c2ccccc2)S(=O)(=O)c2ccccc2)c([N+](=O)[O-])c1 92%
Cc1ccc(NS(=O)(=O)c2ccc3[nH]c(=O)[nH]c3c2)cc1C 97.9%
COc1ccc(/C=C2\SC(=S)N(CCC(=O)Nc3ccc(C(=O)O)c(O)c3)C2=O)cc1OC 118%
Nc1ccc(Cc2ccc(N)c([N+](=O)[O-])c2)cc1[N+](=O)[O-] 70%
CC(C(=O)N1CCCC1)C1CCN(C(=O)c2cc3cc(Cl)ccc3[nH]2)CC1 (stereo not drawn) 85.2%
CC(=O)C1C(c2ccc(OC(F)F)cc2)NC(=O)NC1(O)C(F)(F)F (stereo not drawn) 95.9%
Cc1c(NC(=O)c2cc(-c3ccccc3)on2)c(=O)n(-c2ccccc2)n1C 90.4%
Cn1c(=O)[nH]c2cc(-c3noc(CNS(=O)(=O)c4ccccc4)n3)ccc21 118%
CCOC(=O)N1CCN(C(=O)CSc2nc3c(c(=O)n2-c2cccc(OC)c2)SCC3)CC1 60.9%
COc1ccc2sc(N(Cc3ccccn3)C(=O)/C=C/c3cccs3)nc2c1 111%
O=C(Nc1cnc(N2CCN(c3ccccn3)CC2)c(C(=O)O)c1)c1ccc(F)cc1 92.9%
Cc1cc(=O)[nH]c2c(C)cc(S(=O)(=O)NC3CCCCC3)cc12 133%
O=C(CN1C(=O)c2ccccc2S1(=O)=O)Nc1nccs1 112%
CCN1c2ncccc2C(=O)NC12CCN(C(=O)c1ccc3c(c1)OCCO3)CC2 69.1%
O=C(CSc1nc(=O)n(CC2CCCO2)c2c1CCCC2)Nc1nc2ccccc2s1 (stereo not drawn) 128%
O=C(NNc1nc2cc3c(cc2s1)OCCO3)c1ccccc1 68.4%
Cc1cccc(NC(=O)CSc2ncc(S(=O)(=O)c3ccc(C)c(C)c3)c(N)n2)c1 98.7%
Cn1c(=O)c2c(SCC(=O)NCc3ccc4c(c3)OCO4)ccnc2n(C)c1=O 114%
Brc1cccc2sc(N3CCc4ccccc4C3)nc12 98%
Cc1ccnc(N2CCCC(C(=O)Nc3ccccc3-c3ccccc3)C2)n1 (stereo not drawn) 96.2%
CCOc1ccc(-c2noc(Cn3ncn4nc(-c5ccc(OC)cc5)cc4c3=O)n2)cc1OC 125%
Cc1ccc(-c2c3c(nc4sc(C(=O)Nc5cccc(F)c5)c(N)c24)CCCC3)o1 95.2%
Cc1cccc(S(=O)(=O)NCCOc2ccc(-c3ccc(F)cc3)nn2)c1 102%
CCN1C(=O)c2cccc3c(NC(=O)CN4C(=O)c5ccccc5C4=O)ccc1c23 36.5%
Cc1ccc(-n2ncc3c(SCC(=O)Nc4nnc(C)s4)ncnc32)c(C)c1 97.1%
Cc1cc(C)cc(NS(=O)(=O)c2c[nH]c(=O)[nH]c2=O)c1 125%
CCCN1CCN(c2ncnc3sc(C(=O)NCc4ccc5c(c4)OCO5)c(C)c23)CC1 116%
COc1ccc(C(=O)Nc2ccc3nc(N4CC(C)CC(C)C4)cc(C(=O)O)c3c2)cc1 (stereo not drawn) 91.1%
CSC1=C(C#N)C2(CCCCC2)C(c2nc(-c3ccc(C)cc3)cs2)C(=N)N1 (stereo not drawn) 83.2%
Cn1cnc(S(=O)(=O)N2CCC(c3nnc(C(=O)Nc4ccccc4)s3)CC2)c1 89.6%
O=C(CCCC1=Nc2ccccc2S(=O)(=O)N1)OCc1ccc(F)cc1 87.8%
O=C(CSc1nc(=O)[nH]c2c1CCC2)N1CCCC1 109%
O=c1[nH]cc(S(=O)(=O)N2CCN(Cc3ccccc3)CC2)c(=O)[nH]1 106%
CCOC(=O)c1cnc(SCC(=O)NNC(C)=O)nc1N 108%
Cc1ccc(-c2csc(-c3cccn3CC(=O)NCc3cccc(Br)c3)n2)cc1 91.7%
COc1cc(CSc2nc(=O)n3cc(C)ccc3n2)cc(OC)c1 37.7%
COc1cccc2c(=O)n(CC(=O)NCc3ccc(F)cc3)ccc12 101%
C=CCn1/c(=N/C(=O)CN2C(=O)CCC2=O)sc2cc(C(=O)OC)ccc21 60.7%
COc1ccc(C2CC(c3cccs3)=NN2C(=O)Cn2cnc3c(cnn3CCO)c2=O)cc1 (stereo not drawn) 89.2%
CCN(C(=O)CCc1nc(-c2nn(-c3ccc(Cl)cc3)c(=O)n(C)c2=O)no1)c1ccccc1C 68.6%
Nc1ncnc(N2CCc3ccccc32)c1[N+](=O)[O-] 95.5%
COc1ccc(-c2nsc3c(SCC(=O)NCc4cccs4)ncnc23)cc1 125%
CCOc1ccc(Nc2nc3c(C)cccn3c(=O)c2C=O)cc1 110%
CCS(=O)(=O)Nc1cccc(C(=O)CC2(O)C(=O)Nc3ccc(Br)cc32)c1 (stereo not drawn) 103%
Cn1ccnc1CNS(=O)(=O)c1ccc2c(c1)c(=O)n(C)c(=O)n2C 96.8%
Cc1ccc(C(=O)N2CCC(O)CC2)c(N2CCN(C(=O)c3ccco3)CC2)n1 115%
COc1cccc(NC(=O)N(Cc2cc3cccc(C)c3nc2Cl)C2CCCCC2)c1 111%
Cc1n[nH]c2c1C1(C(=O)Nc3ccccc31)C(C#N)=C(N)O2 (stereo not drawn) 101%
CCc1cccc(C)c1NC(=O)C1CCCN1C(=O)Nc1ccc(C)cc1 (stereo not drawn) 98.5%
Cc1nc2c(ccc3nc(NC(=O)c4ccccc4I)sc32)s1 117%
CNC(=O)c1ccsc1NC(=O)c1ccc(S(=O)(=O)N(C)C)cc1 78.2%
Nc1ncnc(Sc2ccc(Cl)cc2)c1[N+](=O)[O-] 54.7%
Cc1ccc(S(=O)(=O)c2nc(/C(C#N)=C\c3ccccc3)sc2Cl)cc1 80.9%
Cc1ccc(C)c2[nH]c(=O)c(CCNC(=O)c3ccc([N+](=O)[O-])cc3)cc12 95.4%
COC(=O)c1ccc(C(=O)Nc2ccc3nc(SC)sc3c2)cc1 88.5%
COc1ccc(Cl)c2sc(N3CCN(C(=O)C4COc5ccccc5O4)CC3)nc12 (stereo not drawn) 100%
Cn1nc(C(=O)N2CCOCC2)c2c1CCN(S(=O)(=O)c1cccc3nsnc13)C2 84%
O=C(Nc1ccc2c(c1)C(=O)NC2=O)c1ccc(-c2nc3ccccc3s2)s1 91.1%
CCOC(=O)CCc1c(C)[nH]c2nc(CO)nn2c1=O 67.6%
CCOc1ccc2nc(NC(=O)c3cc4c(=O)n5cccc(C)c5nc4s3)sc2c1 133%
COC(=O)c1sc2ccccc2c1NC(=O)COc1ccc(Cl)cc1Cl 84.3%
COc1ccccc1NC(=O)Cn1c(C)nc2ccc(NC(=O)c3ccccc3)cc2c1=O 82%
CCCc1cc(=O)[nH]c2nnc(SCc3cccc([N+](=O)[O-])c3)n12 128%
O=C(Nc1nc2c(s1)CCc1ccccc1-2)c1ccc(N2C(=O)CCC2=O)cc1 94.6%
CCC(C)Nc1nc2c(C)cccn2c(=O)c1/C=N/c1ccc([N+](=O)[O-])cc1Cl (stereo not drawn) 89.9%
Cc1cc(C)cc(-n2c(SCC(=O)Nc3ccc(C(N)=O)cc3)nc3c(c2=O)SCC3)c1 121%
O=C1N=C(N2CCN(c3ccccc3)CC2)S/C1=C/c1ccc(O)cc1 86.2%
Oc1ccc(-c2n[nH]cc2-c2nc3ccccc3s2)c(O)c1 97.7%
CCOC(=O)c1c(-c2ccc(OC)cc2)csc1NC(=O)CSc1nnc2ccccn12 26.4%
CCOC(=O)c1sc(Nc2nc3cc4c(cc3s2)OCO4)cc1C 88%
COc1ccc(Cl)c2sc(N(Cc3cccnc3)C(=O)c3cccc(S(C)(=O)=O)c3)nc12 67.2%
Cn1c(=O)c2c(SCC(=O)Nc3cccc(F)c3)nc(-c3ccc([N+](=O)[O-])cc3)nc2n(C)c1=O 95.4%
CC(C)NC(=O)c1ccc(-c2ccc(F)cc2)nc1 103%
Cc1ccc(OCC(O)Cn2c(N(C)Cc3ccccc3)nc3c2c(=O)[nH]c(=O)n3C)cc1C (stereo not drawn) 62.4%
CC1(C)COc2ccc(NC(=O)CCc3ccccc3)cc2NC1=O 109%
COc1cccc(NC(=O)c2cnc(-c3ccc(C)cc3)nc2C)c1 77.9%
Nc1c(-c2nc(-c3ccc(Br)cc3)cs2)c2ccccn2c1C(=O)c1cccs1 84.2%
N#CC1=C(SCC(=O)N(c2ccccc2)c2ccccc2)NC(=O)CC1c1ccco1 (stereo not drawn) 91.7%
C#CCSc1nc2ccccc2n1C(=O)c1ccc(S(=O)(=O)N2CCOCC2)cc1 97.9%
O=C1c2ccccc2C(=O)c2cc(S(=O)(=O)Nc3ccncc3)ccc21 85.9%

Quoted at random: 2 compounds from above.
Intracellular bacterial bioluminescence, inactive:
Cn1cnc(S(=O)(=O)N2CCC(c3nnc(C(=O)Nc4ccccc4)s3)CC2)c1 89.6%
Cc1ccc(-n2ncc3c(SCC(=O)Nc4nnc(C)s4)ncnc32)c(C)c1 97.1%

For reference, three of the compounds above.
Intracellular bacterial bioluminescence, inactive:
Cc1n[nH]c2c1C1(C(=O)Nc3ccccc31)C(C#N)=C(N)O2 (stereo not drawn) 101%
CCc1cccc(C)c1NC(=O)C1CCCN1C(=O)Nc1ccc(C)cc1 (stereo not drawn) 98.5%
Cc1nc2c(ccc3nc(NC(=O)c4ccccc4I)sc32)s1 117%
